Measured values: article doi:10.1101/2024.12.01.626218
Results are given in words; binding and its absence hold for the method and conditions named. For some of these results: Binding seen in cells or lysates may run through a third protein. Some entries that bind do so weakly or less than the wild type. For some of these results: Where a sequence is shown, tags or fusion partners need not be part of it.

Protein sequences, listed by entry. Tags and fused reporters are not part of them.
UniProt Q99LZ3: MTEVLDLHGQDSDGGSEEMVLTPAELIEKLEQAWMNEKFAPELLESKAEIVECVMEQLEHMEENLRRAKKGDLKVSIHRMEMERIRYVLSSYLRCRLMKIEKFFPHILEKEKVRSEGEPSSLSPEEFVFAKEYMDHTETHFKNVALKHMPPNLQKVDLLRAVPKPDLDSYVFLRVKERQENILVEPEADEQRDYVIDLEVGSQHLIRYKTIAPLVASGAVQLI
UniProt Q8BIW9: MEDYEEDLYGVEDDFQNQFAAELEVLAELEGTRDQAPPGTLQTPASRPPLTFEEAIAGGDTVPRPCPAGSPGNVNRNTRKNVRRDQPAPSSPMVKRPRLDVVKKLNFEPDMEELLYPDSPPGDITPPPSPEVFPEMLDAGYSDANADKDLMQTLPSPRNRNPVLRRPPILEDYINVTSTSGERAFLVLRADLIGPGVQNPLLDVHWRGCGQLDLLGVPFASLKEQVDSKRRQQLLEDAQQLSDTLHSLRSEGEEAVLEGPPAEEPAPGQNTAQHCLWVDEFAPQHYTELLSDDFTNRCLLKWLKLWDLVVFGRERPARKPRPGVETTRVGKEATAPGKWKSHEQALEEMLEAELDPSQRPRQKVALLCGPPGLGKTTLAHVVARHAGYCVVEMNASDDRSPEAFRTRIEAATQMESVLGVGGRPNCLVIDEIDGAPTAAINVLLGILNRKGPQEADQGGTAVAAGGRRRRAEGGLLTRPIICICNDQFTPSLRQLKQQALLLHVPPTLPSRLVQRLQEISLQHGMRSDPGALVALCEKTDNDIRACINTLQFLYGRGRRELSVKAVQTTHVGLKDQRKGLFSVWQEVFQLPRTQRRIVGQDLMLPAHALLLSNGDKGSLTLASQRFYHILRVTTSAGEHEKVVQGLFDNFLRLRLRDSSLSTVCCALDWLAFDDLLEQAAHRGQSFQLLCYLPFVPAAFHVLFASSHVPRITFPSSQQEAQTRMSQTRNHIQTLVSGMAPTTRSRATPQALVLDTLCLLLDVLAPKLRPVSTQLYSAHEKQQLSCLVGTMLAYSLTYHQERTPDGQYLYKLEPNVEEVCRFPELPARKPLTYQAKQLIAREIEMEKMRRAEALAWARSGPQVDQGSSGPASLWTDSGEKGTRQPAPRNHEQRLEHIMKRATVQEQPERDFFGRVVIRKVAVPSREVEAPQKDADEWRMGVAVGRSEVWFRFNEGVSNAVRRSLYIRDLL
UniProt Q61881: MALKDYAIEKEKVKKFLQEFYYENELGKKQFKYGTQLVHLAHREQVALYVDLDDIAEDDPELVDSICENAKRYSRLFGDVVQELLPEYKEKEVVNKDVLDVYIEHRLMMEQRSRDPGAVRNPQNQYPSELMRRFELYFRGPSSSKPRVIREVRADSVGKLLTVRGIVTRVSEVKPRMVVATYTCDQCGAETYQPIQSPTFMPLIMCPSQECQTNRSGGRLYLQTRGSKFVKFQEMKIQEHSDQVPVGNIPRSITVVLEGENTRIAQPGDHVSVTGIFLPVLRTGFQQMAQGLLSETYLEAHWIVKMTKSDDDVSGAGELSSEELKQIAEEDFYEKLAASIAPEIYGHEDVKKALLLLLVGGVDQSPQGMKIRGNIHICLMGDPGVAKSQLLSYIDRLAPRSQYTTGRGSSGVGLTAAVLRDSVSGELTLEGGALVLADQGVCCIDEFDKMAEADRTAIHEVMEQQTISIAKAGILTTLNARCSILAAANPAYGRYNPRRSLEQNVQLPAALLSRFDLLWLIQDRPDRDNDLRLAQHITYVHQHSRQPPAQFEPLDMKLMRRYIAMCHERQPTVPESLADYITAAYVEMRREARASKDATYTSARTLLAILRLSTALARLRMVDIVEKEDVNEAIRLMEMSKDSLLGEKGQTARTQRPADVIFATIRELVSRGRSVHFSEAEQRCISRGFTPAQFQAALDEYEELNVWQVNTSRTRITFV

T1: DBD-TRAIP 307-333 (mouse) (UniProt Q8VIG6)
T1 sequence: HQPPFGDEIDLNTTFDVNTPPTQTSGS


Experiments:
[1] = target: GFP-SLD5 (subunit of the CMG helicase, used to isolate CMG) (mouse) (UniProt Q99LZ3); assay: co-IP
[2] = target: T1, DBD-TRAIP 307-333 (mouse); assay: two-hybrid

| Molecule | binding [1] | binding [2] |
| --- | --- | --- |
| CTF18 (from UniProt Q8BIW9 1-969) | binds |  |
| MCM3 (protein, UniProt P25206 1-812, ubiquitylated in part after Calyculin A) MAGTVVLDDVELREAQRDYLDFLDDEEDQGIYQNKVRELISDNQYRLIVSVNDLRRKNEKRANRLLNNAFEELVAFQRALKDFVASIDATYAKQYEEFYIGLEGSFGSKHVSPRTLTSCFLSCVVCVEGIVTKCSLVRPKVVRSVHYCPATKKTIERRYSDLTTLVAFPSSSVYPTKDEENNPLETEYGLSVYKDHQTITIQEMPEKAPAGQLPRSVDVILDDDLVDKVKPGDRIQVVGTYRCLPGKKGCYTSGTFRTVLIACNVKQMSKDIQPAFSADDIAKIKKFSKTRSKDVFEQLARSLAPSIHGHDYVKKAILCLLLGGVERELENGSHIRGDINILLIGDPSVAKSQLLRYVLCTAPRAIPTTGRGSSGVGLTAAVTTDQETGERRLEAGAMVLADRGVVCIDEFDKMSDMDRTAIHEVMEQGRVTIAKAGIHARLNARCSVLAAANPVYGRYDQYKTPMENIGLQDSLLSRFDLLFIMLDQMDPEQDREISDHVLRMHQYRAPGEQDGDALPLGSSVDILATDDPDFTQDDQQDTRIYEKHDSLLHGTKKKKEKMVSAAFMKKYIHVAKIIKPTLTQESAAYIAEEYSRLRSQDSMSSDTARTSPVTARTLETLIRLATAHAKARMSKTVDLQDAEEAVELVQYAYFKKVLEKEKKRKKASEDESDLEDEEEKSQEDTEQKRKRRKTHAKDGESYDPYDFSEAETQMPQVHTPKTDDSQEKTDDSQETQDSQKVELSEPRLKAFKAALLEVFQEAHEQSVGMLHLTESINRNREEPFSSEEIQACLSRMQDDNQVMVSEGIVFLI | binds |  |

Continued, values first:

| binding [1] | binding [2] | Molecule |
| --- | --- | --- |
| binds |  | MCM7 (from UniProt Q61881 1-719) |
|  | binds | AD-TTF2 1-96 (domain or fragment, UniProt Q5NC05 1-96) MDLVKCPEHGDACFLKTGVRDGPNKGKSFYVCRTNTCGFVQATDIPVSHCLLHEEFVVELQGLFLPQDKKEWRLFFRCARTKAEGKQWCGNVPWRQ |
